# Assay results from the supplement of paper PMC8728848.
# This is one part of the list.
# B1: Epa8 (Candida glabrata) (protein)
# chain: MGSSHHHHHHSSGLVPRGSHMASSRALSDYPLGCSPLLGTKLTPGLSMELYEYPLDNHGIGPHCWDPAYLNPEYPRTGFESHKLIGTAQNVMSLNFEHRTQDCHVEFSNLPASFNFPDQITLTNFTMLLYGYFKPKESGRYRFHMEADDLLLMNLGAGNAFDCCAHEATRNNLGDYIAYDIWAGTRKDVEVFLEKEVFYPLRLFFNNRDGRAALDFSYYLNGATEPGTDIPELLFSLPDGESCPAYI
# Columns and labels:
# Assay in all cases: glycan array binding signal (z-score within array); higher = stronger binding
# Settings in all cases: glycan notation: IUPAC condensed, linker removed
# Neu5Ac(a2-3)Gal = target: Neu5Ac(a2-3)Gal
# How it was run: (§1)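 Glycan array data were curated from 3228 arrays in the Consortium for Functional Glycomics database and kept only where the protein sequence was available. Glycan names were converted to IUPAC-condensed notation, and columns mapping to the same glycan were averaged. The binding signal is a within-array Z-score, averaged across arrays of the same protein sequence at different concentrations or buffers and across linkers. Negative Z-scores can be read as non-binding.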
# [1] = target: Neu5Ac(a2-3)Gal(b1-3)GalNAc
# How it was run: as §1
# [2] = target: Neu5Ac(a2-3)Gal(b1-3)GalNAc(b1-3)Gal(a1-4)Gal(b1-4)Glc
# How it was run: as §1
# [3] = target: Neu5Ac(a2-3)Gal(b1-3)GalNAc(b1-4)Gal(b1-4)Glc
# How it was run: as §1
# [4] = target: Neu5Ac(a2-3)Gal(b1-3)GalNAc(b1-4)[Neu5Ac(a2-3)]Gal(b1-4)Glc
# How it was run: as §1
# [5] = target: Neu5Ac(a2-3)Gal(b1-3)GalNAc(b1-4)[Neu5Ac(a2-8)Neu5Ac(a2-3)]Gal(b1-4)Glc
# How it was run: as §1
# [6] = target: Neu5Ac(a2-3)Gal(b1-3)GalNAc6S
# How it was run: as §1
# [7] = target: Neu5Ac(a2-3)Gal(b1-3)GlcNAc
# How it was run: as §1
# [8] = target: Neu5Ac(a2-3)Gal(b1-3)GlcNAc(b1-2)Man
# How it was run: as §1
# [9] = target: Neu5Ac(a2-3)Gal(b1-3)GlcNAc(b1-2)Man(a1-3)[GlcNAc(b1-4)][Neu5Ac(a2-3)Gal(b1-3)GlcNAc(b1-2)Man(a1-6)]Man(b1-4)GlcNAc(b1-4)GlcNAc
# How it was run: as §1
# [10] = target: Neu5Ac(a2-3)Gal(b1-3)GlcNAc(b1-2)Man(a1-3)[Neu5Ac(a2-3)Gal(b1-3)GlcNAc(b1-2)Man(a1-6)]Man(b1-4)GlcNAc(b1-4)GlcNAc
# How it was run: as §1
# [11] = target: Neu5Ac(a2-3)Gal(b1-3)GlcNAc(b1-2)[Neu5Ac(a2-3)Gal(b1-3)GlcNAc(b1-4)]Man(a1-6)[Neu5Ac(a2-3)Gal(b1-3)GlcNAc(b1-2)Man(a1-3)]Man(b1-4)GlcNAc(b1-4)GlcNAc
# How it was run: as §1
# [12] = target: Neu5Ac(a2-3)Gal(b1-3)GlcNAc(b1-3)Gal(b1-3)GlcNAc
# How it was run: as §1
# [13] = target: Neu5Ac(a2-3)Gal(b1-3)GlcNAc(b1-3)Gal(b1-4)GlcNAc
# How it was run: as §1
# [14] = target: Neu5Ac(a2-3)Gal(b1-3)GlcNAc(b1-3)GalNAc
# How it was run: as §1
# [15] = target: Neu5Ac(a2-3)Gal(b1-3)GlcNAc(b1-6)GalNAc
# How it was run: as §1
# [16] = target: Neu5Ac(a2-3)Gal(b1-3)GlcNAc6S
# How it was run: as §1
# [17] = target: Neu5Ac(a2-3)Gal(b1-3)[Fuc(a1-4)]GlcNAc
# How it was run: as §1
# [18] = target: Neu5Ac(a2-3)Gal(b1-3)[Fuc(a1-4)]GlcNAc(b1-3)Gal(b1-3)[Fuc(a1-4)]GlcNAc
# How it was run: as §1
# [19] = target: Neu5Ac(a2-3)Gal(b1-3)[Fuc(a1-4)]GlcNAc(b1-3)Gal(b1-4)[Fuc(a1-3)]GlcNAc
# How it was run: as §1
# [20] = target: Neu5Ac(a2-3)Gal(b1-3)[GlcNAc(b1-6)]GalNAc
# How it was run: as §1
# [21] = target: Neu5Ac(a2-3)Gal(b1-3)[Neu5Ac(a2-6)]GalNAc
# How it was run: as §1
# [22] = target: Neu5Ac(a2-3)Gal(b1-3)[Neu5Ac(a2-6)]GlcNAc(b1-3)[Fuc(a1-3)[Gal(b1-4)]GlcNAc(b1-6)]Gal(b1-4)Glc
# How it was run: as §1
# [23] = target: Neu5Ac(a2-3)Gal(b1-3)]Neu5Ac(a2-3)Gal(b1-4)]GlcNAc
# How it was run: as §1
# Neu5Ac(a2-3)Gal(b1-4)Glc = target: Neu5Ac(a2-3)Gal(b1-4)Glc
# How it was run: as §1
# [24] = target: Neu5Ac(a2-3)Gal(b1-4)GlcNAc
# How it was run: as §1
# [25] = target: Neu5Ac(a2-3)Gal(b1-4)GlcNAc(b1-2)Man
# How it was run: as §1
# [26] = target: Neu5Ac(a2-3)Gal(b1-4)GlcNAc(b1-2)Man(a1-3)[GlcNAc(b1-4)][Neu5Ac(a2-3)Gal(b1-4)GlcNAc(b1-2)Man(a1-6)]Man(b1-4)GlcNAc(b1-4)GlcNAc
# How it was run: as §1
# [27] = target: Neu5Ac(a2-3)Gal(b1-4)GlcNAc(b1-2)Man(a1-3)[Neu5Ac(a2-3)Gal(b1-4)GlcNAc(b1-2)Man(a1-6)]Man(b1-4)GlcNAc(b1-4)GlcNAc
# How it was run: as §1
# [28] = target: Neu5Ac(a2-3)Gal(b1-4)GlcNAc(b1-2)Man(a1-3)[Neu5Ac(a2-3)Gal(b1-4)GlcNAc(b1-2)Man(a1-6)]Man(b1-4)GlcNAc(b1-4)[Fuc(a1-6)]GlcNAc
# How it was run: as §1
# [29] = target: Neu5Ac(a2-3)Gal(b1-4)GlcNAc(b1-2)Man(a1-3)[Neu5Ac(a2-6)Gal(b1-4)GlcNAc(b1-2)Man(a1-6)]Man(b1-4)GlcNAc(b1-4)GlcNAc
# How it was run: as §1
# [30] = target: Neu5Ac(a2-3)Gal(b1-4)GlcNAc(b1-2)[Neu5Ac(a2-3)Gal(b1-4)GlcNAc(b1-4)]Man(a1-3)[GlcNAc(b1-4)][Neu5Ac(a2-3)Gal(b1-4)GlcNAc(b1-2)[Neu5Ac(a2-3)Gal(b1-4)GlcNAc(b1-6)]Man(a1-6)]Man(b1-4)GlcNAc(b1-4)GlcNAc
# How it was run: as §1
# [31] = target: Neu5Ac(a2-3)Gal(b1-4)GlcNAc(b1-2)[Neu5Ac(a2-3)Gal(b1-4)GlcNAc(b1-4)]Man(a1-3)[GlcNAc(b1-4)][Neu5Ac(a2-3)Gal(b1-4)GlcNAc(b1-4)Man(a1-6)]Man(b1-4)GlcNAc(b1-4)GlcNAc
# How it was run: as §1
# [32] = target: Neu5Ac(a2-3)Gal(b1-4)GlcNAc(b1-2)[Neu5Ac(a2-3)Gal(b1-4)GlcNAc(b1-6)]Man(a1-6)[Neu5Ac(a2-3)Gal(b1-4)GlcNAc(b1-2)Man(a1-3)][GlcNAc(b1-4)]Man(b1-4)GlcNAc(b1-4)GlcNAc
# How it was run: as §1
# [33] = target: Neu5Ac(a2-3)Gal(b1-4)GlcNAc(b1-3)Gal
# How it was run: as §1
# [34] = target: Neu5Ac(a2-3)Gal(b1-4)GlcNAc(b1-3)Gal(b1-3)GlcNAc
# How it was run: as §1
# [35] = target: Neu5Ac(a2-3)Gal(b1-4)GlcNAc(b1-3)Gal(b1-4)GlcNAc
# How it was run: as §1
binder,measurement,setting,value
B1,glycan array binding signal (z-score),Neu5Ac(a2-3)Gal,-0.882
same,glycan array binding signal (z-score),[1],0.408
same,glycan array binding signal (z-score),[2],-0.171
same,glycan array binding signal (z-score),[3],-0.095
same,glycan array binding signal (z-score),[4],-0.268
same,glycan array binding signal (z-score),[5],-0.292
same,glycan array binding signal (z-score),[6],-0.063
same,glycan array binding signal (z-score),[7],0.106
same,glycan array binding signal (z-score),[8],-1.27
same,glycan array binding signal (z-score),[9],1.49
same,glycan array binding signal (z-score),[10],0.584
same,glycan array binding signal (z-score),[11],-0.06
same,glycan array binding signal (z-score),[12],-2
same,glycan array binding signal (z-score),[13],-0.736
same,glycan array binding signal (z-score),[14],0.505
same,glycan array binding signal (z-score),[15],-0.318
same,glycan array binding signal (z-score),[16],0.496
same,glycan array binding signal (z-score),[17],-0.008
same,glycan array binding signal (z-score),[18],-0.132
same,glycan array binding signal (z-score),[19],-0.114
same,glycan array binding signal (z-score),[20],0.423
same,glycan array binding signal (z-score),[21],-0.136
same,glycan array binding signal (z-score),[22],-0.251
same,glycan array binding signal (z-score),[23],0.232
same,glycan array binding signal (z-score),Neu5Ac(a2-3)Gal(b1-4)Glc,0.086
same,glycan array binding signal (z-score),[24],-0.315
same,glycan array binding signal (z-score),[25],1.94
same,glycan array binding signal (z-score),[26],-0.657
same,glycan array binding signal (z-score),[27],-0.277
same,glycan array binding signal (z-score),[28],0.207
same,glycan array binding signal (z-score),[29],0.195
same,glycan array binding signal (z-score),[30],-0.346
same,glycan array binding signal (z-score),[31],-0.243
same,glycan array binding signal (z-score),[32],-1.18
same,glycan array binding signal (z-score),[33],0.177
same,glycan array binding signal (z-score),[34],-0.063
same,glycan array binding signal (z-score),[35],-0.268

# Part of the list above, tab-delimited:
binder	measurement	setting	value
B1	glycan array binding signal (z-score)	[15]	-0.318
same	glycan array binding signal (z-score)	[16]	0.496
same	glycan array binding signal (z-score)	[17]	-0.008
